The record followed here is PubChem BioAssay AID248 (DTP/NCI, 2004).

Structures are written as SMILES. The list does not hold the whole screen: it is rich in T/C values a quarter to a half above the control, in often repeated tests (any T/C) and in doses without a T/C. Further doses and runs are listed elsewhere. T/C: endpoint of the treated group in % of that of the vehicle group. Some entries give survivors of the animals treated and no T/C: the source files T/C as zero there, which appears to mark a toxic dose or a test without result, not a measured value. Some doses without a T/C left all or most animals alive at the check, yet need not have been tolerated: the source hardly ever lists a survival T/C far under the control, and the zero likely stands for such cases as well. Survivors were counted at the toxicity check, usually on the fifth day, unless a day is given; later deaths do not show. Schedules are NCI's codes, taken here to give the interval after Q, in days (D) or hours (H), and the number of doses after X. Some entries hold several experiments; their values stand side by side, smallest first. Some schedules carry Z or #; the key to these is not given. Signs of the kind (2×) say how often a value occurs here. For survival time, the PubChem record calls one and a half times the control and up active, and a quarter to a half above the control has no call in these data; cut-offs in other NCI protocols can differ. Some T/C values carry the count of animals alive at the toxicity check (mostly the fifth day); where none is given, no animal had died by that day.

This test has as its system L1210 leukemia ip in BDF1 mice, survival T/C. Briefly: NCI In Vivo Anticancer Drug Screen. Data for tumor model L1210 Leukemia (intraperitoneal) in B6D2F1 (BDF1) mice. The note with it: T/C endpoint: mean survival time, higher T/C = longer survival.
[1] abbreviates: dose: 600.0 mg/kg/injection, schedule: Q01DX009 (ip), vehicle: water.
[2] abbreviates: dose: 25.0 mg/kg/injection, schedule: Q04DX002 (ip), vehicle: Klucel (hydroxypropylcellulose) (HPC).
The mark [3] stands for this setting: dose: 50.0 mg/kg/injection, schedule: Q04DX002 (ip), vehicle: Klucel (hydroxypropylcellulose) (HPC).
Setting [4] is: dose: 100.0 mg/kg/injection, schedule: Q04DX002 (ip), vehicle: Klucel (hydroxypropylcellulose) (HPC).
Setting [5] is: dose: 200.0 mg/kg/injection, schedule: Q04DX002 (ip), vehicle: Klucel (hydroxypropylcellulose) (HPC).
Setting [6] is: dose: 400.0 mg/kg/injection, schedule: Q04DX002 (ip), vehicle: Klucel (hydroxypropylcellulose) (HPC).
The mark [7] stands for this setting: dose: 150.0 mg/kg/injection, schedule: Q01DX001 (ip), vehicle: saline.
[8] abbreviates: dose: 300.0 mg/kg/injection, schedule: Q01DX001 (ip), vehicle: saline.
[9] abbreviates: dose: 135.0 mg/kg/injection, schedule: Q01DX Z (ip), vehicle: saline.
The mark [10] stands for this setting: dose: 400.0 mg/kg/injection, schedule: Q01DX001 (ip), vehicle: saline.
Setting [11] is: dose: 200.0 mg/kg/injection, schedule: Q01DX009 (ip), vehicle: Klucel (hydroxypropylcellulose) (HPC).
Where [12] appears, read: dose: 400.0 mg/kg/injection, schedule: Q01DX009 (ip), vehicle: Klucel (hydroxypropylcellulose) (HPC).

On to `[N-]=[N+]=CC(=O)NCC(=O)NN=C(CO)CO`, for which the T/C by setting is: (dose: 270.0 mg/kg/injection, schedule: Q01DX009 (ip), vehicle: water) 134 % of control; (dose: 400.0 mg/kg/injection, schedule: Q01DX009 (ip), vehicle: water, evaluated on day 30) 131 % of control; (dose: 400.0 mg/kg/injection, schedule: Q01DX009 (ip), vehicle: water, run until all animals had died) 128 % of control; under setting [1], 148 % of control; (dose: 900.0 mg/kg/injection, schedule: Q01DX009 (ip), vehicle: water) 131 % of control [4 of 6 alive]. The survivor count under setting [1] is 5 of 6.

With `COC[CH2][Hg][O]C(C)=O`, the survivor count reads like this: under setting [2], 3 of 3; under setting [3], 0 of 3; under setting [4], 0 of 3; under setting [5], 0 of 3; under setting [6], 0 of 3.

With `CN(C)[C@@H]1C(=O)C(C(=O)NCc2nc3[nH]cnc(=S)c3[nH]2)=C(O)[C@@]2(O)C(=O)C3=C(O)c4c(O)cccc4[C@@](C)(O)[C@H]3C[C@@H]12`, the T/C was 125 % of control (dose: 86.0 mg/kg/injection, schedule: Q01DX Z (ip), vehicle: carboxymethylcellulose (CMC)) and 149 % of control (dose: 128.0 mg/kg/injection, schedule: Q01DX Z (ip), vehicle: carboxymethylcellulose (CMC)).

`CCN(CC)CCN(C)c1cc(C)nc(/N=C(\N)Nc2ccc(Cl)c(Cl)c2)n1`: the survivor count (dose: 150.0 mg/kg/injection, schedule: Q04DX003 (ip), vehicle: saline with Tween-80) is recorded as 1 of 6.

On to `CCOC(=O)c1ccc(NC(=O)c2cccc(Cl)c2)cc1`, for which the survivor count is, setting by setting: under setting [5], 3 of 3; under setting [6], 3 of 3.

`CN(C)C(=O)CCOc1cccc2ccccc12`: the survivor count is 0 of 6 under setting [7] and 0 of 6 under setting [8].

On to `Cc1cc(N)c2cc(NC(=O)CCCCCCCCC(=O)Nc3ccc4nc(C)cc(N)c4c3)ccc2n1`, for which the T/C (dose: 8.9 mg/kg/injection, schedule: Q01DX Z (ip), vehicle: carboxymethylcellulose (CMC)) is 128 % of control [5 of 6 alive]; the T/C (dose: 30.0 mg/kg/injection, schedule: Q01DX Z (ip), vehicle: saline) was 130 % of control; the T/C under setting [9] was 127 % of control. The survivor count is 6 of 6 under setting [9]; 2 of 6 and 4 of 6 (dose: 202.0 mg/kg/injection, schedule: Q01DX Z (ip), vehicle: saline); 1 of 6 and 2 of 6 (dose: 303.0 mg/kg/injection, schedule: Q01DX Z (ip), vehicle: saline); 3 of 4 under setting [10].

Take `CN/C([S-])=N/N=C/C(=N/N=C(\[S-])NC)c1ccccc1.[Zn+2]`: the survivor count under setting [2] is 0 of 3 and 1 of 3; the survivor count under setting [3] is reported as 0 of 3; the survivor count under setting [4] was 0 of 3 (2×); the survivor count under setting [5] is reported as 0 of 3; the survivor count under setting [6] is 0 of 3.

Consider `C[AsH](C)CC[AsH](C)C.C[AsH](C)CC[AsH](C)C.C[AsH](C)CC[AsH](C)C.[Ni]`, for which the survivor count is 2 of 3 and 3 of 3 (dose: 100.0 mg/kg/injection, schedule: Q04DX002 (ip), vehicle: saline); 0 of 3 (dose: 200.0 mg/kg/injection, schedule: Q04DX002 (ip), vehicle: saline); 0 of 3 (dose: 400.0 mg/kg/injection, schedule: Q04DX002 (ip), vehicle: saline).

For `C=CCC(CC)(C(=O)O)C(=O)O`, the survivor count (dose: 400.0 mg/kg/injection, schedule: Q01DX009 (ip), vehicle: saline) is 3 of 6.

As for `OC(CNCCc1ccccc1)COc1cccc2ccccc12` (stereo not drawn), the survivor count was 2 of 6 (dose: 100.0 mg/kg/injection, schedule: Q04DX003 (ip), vehicle: Klucel (hydroxypropylcellulose) (HPC)); 0 of 6 (dose: 200.0 mg/kg/injection, schedule: Q04DX003 (ip), vehicle: Klucel (hydroxypropylcellulose) (HPC)); 0 of 6 (dose: 400.0 mg/kg/injection, schedule: Q04DX003 (ip), vehicle: Klucel (hydroxypropylcellulose) (HPC)).

For `O=C1C(Cl)=C(Cl)C2(Cl)C1(Cl)C1(Cl)C(=O)C(Cl)=C(Cl)C12Cl` (stereo not drawn), the survivor count was 3 of 6 under setting [11] and 2 of 6 under setting [12].

On to `CC(C)(CNC1CCCC1)OC(=O)c1ccccc1`, for which the survivor count under setting [7] is 1 of 6 and the survivor count under setting [8] was 0 of 6 (2×).

As for `CCOP(=O)(N1CC1(C)C)N1CC1(C)C` (stereo not drawn), the T/C (dose: 8.8 mg/kg/injection, schedule: Q01DX009 (ip), vehicle: saline) was 143 % of control; the T/C (dose: 13.3 mg/kg/injection, schedule: Q01DX009 (ip), vehicle: saline) was 146 % of control; the T/C (dose: 35.0 mg/kg/injection, schedule: Q01DX001 (ip), vehicle: saline) was 138 % of control; the T/C (dose: 53.0 mg/kg/injection, schedule: Q01DX001 (ip), vehicle: other) is 138 % of control; the T/C (dose: 53.0 mg/kg/injection, schedule: Q01DX009 (ip), vehicle: saline) is 143 % of control; the T/C (dose: 80.0 mg/kg/injection, schedule: Q01DX009 (ip), vehicle: Klucel (hydroxypropylcellulose) (HPC)) was 126 % of control. Further, the survivor count (dose: 12.5 mg/kg/injection, schedule: Q01DX001 (ip), vehicle: other) is recorded as 0 of 6; the survivor count (dose: 53.0 mg/kg/injection, schedule: Q01DX001 (ip), vehicle: alcohol) is 0 of 6; the survivor count (dose: 80.0 mg/kg/injection, schedule: Q01DX001 (ip), vehicle: alcohol) is 0 of 6; the survivor count (dose: 120.0 mg/kg/injection, schedule: Q01DX001 (ip), vehicle: alcohol) is 0 of 6; the survivor count (dose: 120.0 mg/kg/injection, schedule: Q01DX009 (ip), vehicle: Klucel (hydroxypropylcellulose) (HPC)) is reported as 6 of 6; the survivor count (dose: 120.0 mg/kg/injection, schedule: Q01DX009 (ip), vehicle: saline) was 5 of 6. For the same compound, the survivor count reads like this: (dose: 180.0 mg/kg/injection, schedule: Q01DX001 (ip), vehicle: alcohol) 0 of 6; (dose: 180.0 mg/kg/injection, schedule: Q01DX009 (ip), vehicle: Klucel (hydroxypropylcellulose) (HPC)) 6 of 6; (dose: 180.0 mg/kg/injection, schedule: Q01DX009 (ip), vehicle: saline) 0 of 6; (dose: 266.0 mg/kg/injection, schedule: Q01DX001 (ip), vehicle: saline) 3 of 6; under setting [10], 2 of 6; (dose: 600.0 mg/kg/injection, schedule: Q01DX001 (ip), vehicle: saline) 0 of 6. Further, for the setting “dose: 800.0 mg/kg/injection, schedule: Q01DX001 (ip), vehicle: other”, the survivor count is recorded as 6 of 6.

Regarding `Cc1ccc(NC(=O)Oc2cccnc2)cc1`, the survivor count is listed as 3 of 6 (dose: 100.0 mg/kg/injection, schedule: Q01DX009 (ip), vehicle: Klucel (hydroxypropylcellulose) (HPC)); 4 of 6 under setting [11]; 0 of 6 under setting [12].

On to `On1ccc(N2CCOCC2)cc1=NC1CCCCC1`, for which the survivor count by setting is: (dose: 200.0 mg/kg/injection, schedule: Q01DX001 (ip), vehicle: saline) 0 of 6; under setting [10], 0 of 6.

With `Cn1c(CN(CCCl)CCCl)nc2c1c(=O)[nH]c(=O)n2C`, the T/C by setting is: (dose: 178.0 mg/kg/injection, schedule: Q01DX001 (ip), vehicle: carboxymethylcellulose (CMC)) 126 % of control; (dose: 400.0 mg/kg/injection, schedule: Q01DX001 (ip), vehicle: carboxymethylcellulose (CMC)) 126 [3 of 4 alive] and 131 % of control. For the setting “dose: 600.0 mg/kg/injection, schedule: Q01DX001 (ip), vehicle: carboxymethylcellulose (CMC)”, the survivor count is listed as 4 of 4.
